PubChem BioAssay AID504847 (National Center for Advancing Translational Sciences (NCATS), 2011)
Values joined by “and” are separate entries in the source; they are usually repeats but may differ in a detail not shown here. Identical values can stand only once. In all, about 400,000 compounds went through this assay and about 3,700 (0.93%) were called active. Inconclusive means that the source gave no clear call. Such entries were picked first, then a sample of the others. Calls follow the shape of the dose curve; as a rule, active = well fitted inhibition curve with a large enough effect; inconclusive = small, poorly fitted or top-dose-only effect, or another doubt; inactive = no such curve, though single readings can be large or run the other way. Potencies beside an inconclusive call are fits to weak or partial responses and may not hold up.

By UniProt entry, the sequences of proteins in these tests, tags left out. Where a name states a change or a piece, a line headed by the entry shows the natural chain unless it says otherwise.
UniProt P11473: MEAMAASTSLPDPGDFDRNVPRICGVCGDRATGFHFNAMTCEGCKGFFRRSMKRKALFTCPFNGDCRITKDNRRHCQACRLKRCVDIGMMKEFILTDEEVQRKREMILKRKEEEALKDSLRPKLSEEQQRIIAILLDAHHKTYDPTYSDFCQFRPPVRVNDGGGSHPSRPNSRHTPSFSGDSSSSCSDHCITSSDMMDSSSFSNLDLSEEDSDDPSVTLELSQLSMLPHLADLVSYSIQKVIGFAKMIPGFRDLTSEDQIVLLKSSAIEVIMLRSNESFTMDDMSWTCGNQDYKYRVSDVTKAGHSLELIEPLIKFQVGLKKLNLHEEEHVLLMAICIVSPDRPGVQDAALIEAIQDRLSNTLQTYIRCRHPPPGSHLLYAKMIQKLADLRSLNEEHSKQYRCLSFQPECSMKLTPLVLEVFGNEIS

Each compound was assayed against Vitamin D3 receptor (Homo sapiens) (UniProt P11473) (assay: Inhibitors of the vitamin D receptor (VDR): qHTS). Conditions: VDR-SRC2-3 peptide fluorescence polarization, 2 h; max response, negative = inhibition: active compounds read low.
Summary of the method: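 The screen uses fluorescence polarization to detect compounds that interfere with recruitment of the SRC2-3 coactivator peptide to VDR; plates are read after 2 h at room temperature.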
% is scaled to controls: 0 for no effect and ±100 for the full control effect; potency is read from the fitted curve at half-maximal effect.

SMILES | Potency | max response, negative = inhibition
Cc1ccc(N2C(=O)N(CC(=O)Nc3ccc(C)c(C)c3[N+](=O)[O-])C(=O)C2C)cc1 (configuration not stated) | inconclusive: 79.4 µM [inhibitor, single point] | –
Cc1ccccc1Nc1cc(C(=O)NCCCN2CCN(c3cccc(Cl)c3)CC2)c2ccccc2n1 | – | inactive: 2.74%
CCCCN(CC)CCCNC(=O)CS(=O)(=O)Cc1nc(-c2ccc(C)cc2)oc1C | inconclusive: 89.1 µM [inhibitor, single point] | –
COc1cc(/C=C(\C#N)C(N)=O)ccc1OS(=O)(=O)c1ccc(C)cc1 | inconclusive: 50.1 µM [inhibitor, partial curve, poor fit] | –
COc1ccc(Cl)c2sc(N3CCN(C(=O)C4=COCCO4)CC3)nc12 | inconclusive: 89.1 µM [inhibitor, single point] | –
O=C(c1cc2cc(F)ccc2[nH]1)N1CCN(C(=O)c2ccco2)CC1 | – | inactive: -6.55%
O=C(Oc1ccc(N(C(=O)c2ccncc2)S(=O)(=O)c2ccc(Cl)cc2)cc1)c1ccncc1 | inconclusive: 20 µM [inhibitor, full curve] | –
Cc1sc(NC(=O)CCC(=O)O)c(C(N)=O)c1-c1ccccc1 | inconclusive: 50.1 µM [inhibitor, partial curve, poor fit] | –
CS(=O)(=O)c1ccc(S(=O)CC(=O)OCc2ccccc2)c([N+](=O)[O-])c1 (configuration not stated) | active: 17.8 µM | –
COc1cc(C)cc(OC)c1OCC(=O)Nc1cc(C)on1 | inconclusive: 89.1 µM [inhibitor, single point] | –
O=C(C=C=Nc1ccccc1)C(=O)N=C=Cc1ccccc1 | inconclusive: 3.55 µM [inhibitor, full curve, poor fit] | –
Cc1ccc(S(=O)(=O)N2CCC(=O)N(C(CO)C(C)C)CC2)cc1 (configuration not stated) | inconclusive: 50.1 µM [inhibitor, partial curve, poor fit] | –
COc1ccc(-c2cn[nH]c2-c2ccc(OCC(=O)NN)cc2O)cc1OC | – | inactive: 8.89%
CCN1CCN(c2ccc(N3CCN(S(=O)(=O)c4cc([N+](=O)[O-])ccc4C)CC3)nn2)CC1 | inconclusive: 70.8 µM [inhibitor, partial curve, poor fit] | –
CC(C(=O)Nc1ccccc1C(=O)N1CCCC1)n1nnc2ccccc21 (configuration not stated) | – | inactive: 9.55%
O=C(Nc1nnc(C2CC2)o1)c1ccc(S(=O)(=O)N2CCCc3ccccc32)cc1 | – | inactive: -19.4%
O=C(N/N=C/c1c(Cl)cccc1Cl)c1ccc(F)cc1 | – | inactive: 8.36%
O=C(CCN1C(=O)/C(=C\C=C\c2ccccc2)SC1=S)Nc1ccccc1C(=O)O | inconclusive: 20 µM [inhibitor, full curve, poor fit] | –
CCOC(=O)Cc1csc(NC(=O)Cn2cnc3c2c(=O)n(C)c(=O)n3C)n1 | inconclusive: 31.6 µM [inhibitor, single point] | –
COc1ccc(-c2nc(CS(=O)CC(=O)NCc3ccccn3)c(C)o2)cc1 (configuration not stated) | inconclusive: 89.1 µM [inhibitor, partial curve, poor fit] | –
O=C(O)CN1C(=O)/C(=C\c2cc(Br)ccc2OCc2ccccc2Cl)SC1=S | inconclusive: 14.1 µM [inhibitor, full curve] | –
Cc1cccc(C)c1OCCCn1c(CCNC(=O)C2CCCCC2)nc2ccccc21 | – | inactive: 10.5% and inactive: -21.5%
N#Cc1c(/N=C/c2ccc(-c3ccccc3C(=O)O)o2)sc2c1CCCC2 | – | inactive: -14%

SMILES | Potency | max response, negative = inhibition
CC(=O)n1nc(-c2ccc(Cl)cc2)nc1NCc1ccco1 | inconclusive: 56.2 µM [inhibitor, partial curve, poor fit] | –
O=S(=O)(c1ccccc1)c1nc(-c2ccccc2)oc1N1CCCC1 | inconclusive: 70.8 µM [inhibitor, partial curve] | –
Cc1cc(C(=O)NCc2cccs2)c(C)o1 | inconclusive: 89.1 µM [inhibitor, single point] | –
CCOc1ccc(Cn2c(SCCCCC#N)nc3c2c(=O)n(C)c(=O)n3C)cc1OCC | inconclusive: 89.1 µM [inhibitor, single point] | –
Cn1nc(C(=O)N2CCCC2)c2ccccc2c1=O | – | inactive: -10.3%
COc1ccc(-c2nc(CS(=O)(=O)CC(=O)NC3CCCCC3C)c(C)o2)cc1 (configuration not stated) | inconclusive: 28.2 µM [inhibitor, partial curve, poor fit] | –
CCC(Oc1ccccc1)C(=O)Nc1cc(-c2cccc(C)c2)nn1-c1ccccc1 (configuration not stated) | – | inactive: 10.9%
COc1ccc(N(C)S(=O)(=O)c2cccc(C(=O)Nc3nc4ccccc4[nH]3)c2)cc1 | – | inactive: 3.74%
CCOC(=O)c1sc(NC(=O)CSc2nc(C)cc(C(F)(F)F)n2)c(C#N)c1C | active: 28.2 µM | –
Cc1csc(NC(=O)NC2(C(F)(F)F)Oc3ccccc3O2)n1 | inconclusive: 31.6 µM [inhibitor, single point] | –
O=C(/C=C/c1ccccc1)c1ccccc1 | active: 17.8 µM | –
CCCCC1(C)OC(=O)C(=Cc2ccc(N(C)C)cc2)C(=O)O1 (configuration not stated) | inconclusive: 79.4 µM [inhibitor, single point] | –
O=C1/C(=C/C=C/c2ccccc2)Oc2c1ccc(O)c2CN1CCN(CCO)CC1 | inconclusive: 89.1 µM [inhibitor, single point] | –
COc1ccccc1NC(=O)Nc1ccnn1C1CCN(C(=O)c2cscn2)CC1 | inconclusive: 89.1 µM [inhibitor, single point] | –
Cc1coc(C)c1C(=O)CC1(O)C(=O)N(Cc2ccccc2)c2ccccc21 (configuration not stated) | – | inactive: -23%
Cn1c(=O)c([N+](=O)[O-])c(-n2cnc3ccccc32)c2ccccc21 | active: 20 µM | –
COc1cccc(CNC(=O)Cn2ncn3nc(-c4cccs4)cc3c2=O)c1OC | – | inactive: 1.77%
Cc1oc(/N=C/c2cccc([N+](=O)[O-])c2)c(C#N)c1C | inconclusive: 25.1 µM [inhibitor, partial curve, poor fit] | –
Cc1ccc2cc(CCNC(=O)c3ccc(C)c([N+](=O)[O-])c3)c(=O)[nH]c2c1 | – | inactive: -7.2%
CCOC(=O)N1CCN(C(=O)c2cc(COc3ccc4ncccc4c3)on2)CC1 | – | inactive: -3.75%
COc1ccc(C=NNc2ccc([N+](=O)[O-])cc2S(=O)(=O)Nc2ccccc2C(=O)O)cc1OC | inconclusive: 89.1 µM [inhibitor, single point] | –
O=C(/C=C/c1ccco1)Nc1nc(-c2ccccc2)cs1 | – | inactive: -10.7%
COc1ccc(CNC(=O)C2CCN(S(C)(=O)=O)CC2)cc1 | inconclusive: 56.2 µM [inhibitor, partial curve, poor fit] | –

SMILES | Potency | max response, negative = inhibition
COc1ccc(S(=O)(=O)NCC2CCCN(Cc3cccnc3)C2)cc1 (configuration not stated) | inconclusive: 22.4 µM [inhibitor, full curve, poor fit] | –
CC(=O)C1=C(O)C(=O)N(CCc2c[nH]c3ccccc23)C1c1ccc(O)cc1 (configuration not stated) | – | inactive: -5.16%
CC(C)c1ccc(C2CC(=O)N3CN(Cc4ccco4)CSC3=C2C#N)cc1 (configuration not stated) | active: 39.8 µM | –
CCOC(=O)c1sc(NC(=O)C2c3ccccc3Oc3ccccc32)c(C#N)c1C | active: 79.4 µM | –
CCCCNC(=S)N1CCn2cccc2C1c1ccccc1 (configuration not stated) | – | inactive: 23.2%
CCOC(=O)Cc1csc(NC(=O)CC(C)(C)C)n1 | inconclusive: 25.1 µM [inhibitor, partial curve, poor fit] | –
Cc1ccc(/C=N/NC(=O)c2nnn(-c3nonc3N)c2CNc2ccccc2)cc1 | inconclusive: 22.4 µM [inhibitor, partial curve, poor fit] | –
COc1ccccc1N1CCN(CCCN2C(=O)C3CCCCN3C2=O)CC1 (configuration not stated) | – | inactive: 16.8%
COc1ccc(S(=O)(=O)N2CCCN(CC(=O)Nc3ccc(OC)cc3OC)CC2)cc1 | – | inactive: -7.22%
CCOCCOC(=O)NCCCCCCNC(=O)OCCOCC | inconclusive: 44.7 µM [inhibitor, partial curve, poor fit] | –
O=C(C1CCCO1)N1CCN(Cc2c(O)ccc3ccccc23)CC1 (configuration not stated) | active: 50.1 µM | –
CN(C)S(=O)(=O)c1cccc(C(=O)NCC2(N3CCOCC3)CCCCC2)c1 | inconclusive: 89.1 µM [inhibitor, partial curve, poor fit] | –
Cc1ccc(NC(=S)N2CCC(c3ccc(C)cc3)C2)cc1 (configuration not stated) | inconclusive: 89.1 µM [inhibitor, single point] | –
O=C1C2CCCN2C(=O)N1CCCCN1CCN(c2cccc(Cl)c2)CC1 (configuration not stated) | inconclusive: 89.1 µM [inhibitor, single point] | –
CC(=O)N1CCN(c2ccc(NCc3ccc(C)s3)cc2)CC1 | inconclusive: 89.1 µM [inhibitor, single point] | –
CC(=O)OC1CC[C@]2(C)C(CC(OC(C)=O)[C@]3(C)C2CC[C@@]2(C)C(c4ccoc4)OC(=O)C4O[C@]432)C1(C)C (some centres not stated) | inconclusive: 25.1 µM [inhibitor, full curve] | –
CC1CCN(C(=S)c2ccccc2O)CC1 | inconclusive: 89.1 µM [inhibitor, single point] | –
S=C(NCCCc1ccccc1)Nc1ccccc1 | – | inactive: -6.7%
COc1ccc(C)cc1NC(=O)c1cc(S(=O)(=O)N2CCCCC2)c[nH]1 | – | inactive: 15.7%
CC1CCCCC12NC(=O)N(CC(=O)Nc1cccc(S(=O)(=O)N3CCCCC3)c1)C2=O (configuration not stated) | inconclusive: 89.1 µM [inhibitor, single point] | –
CCCCCCCCN1[C@@H](CC(=O)O)c2ccc(C(F)(F)F)cc2S1(=O)=O | inconclusive: 56.2 µM [inhibitor, partial curve, poor fit] | –
